The values below come from PMC4357710, “TEFM is a potent stimulator of mitochondrial transcription elongation in vitro” (Nucleic Acids Research, 2015).

A weaker result is weaker than the reference pair of the same experiment. Tags and fusion partners may be left off the protein sequences shown.

In this series the target is T1, TEFM (Homo sapiens) (UniProt Q96QE5).
T1 sequence (looked up): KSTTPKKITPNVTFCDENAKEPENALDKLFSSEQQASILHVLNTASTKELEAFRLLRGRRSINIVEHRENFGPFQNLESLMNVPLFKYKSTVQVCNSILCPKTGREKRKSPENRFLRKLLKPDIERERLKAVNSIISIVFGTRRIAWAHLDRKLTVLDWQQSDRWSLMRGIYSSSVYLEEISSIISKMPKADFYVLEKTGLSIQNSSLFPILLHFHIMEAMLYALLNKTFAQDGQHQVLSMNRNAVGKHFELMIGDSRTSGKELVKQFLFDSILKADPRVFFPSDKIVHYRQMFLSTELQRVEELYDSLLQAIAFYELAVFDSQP
As to the kind of experiment: MST. As to conditions: TEFM titrated to 13.7 uM, very low affinity, binding only above 2000 nM, Kd not calculable; MST: 25 mM Tris-HCl pH 8.0, 100 mM NaCl, 10 mM MgCl2, 10% glycerol, 1 mM DTT, 500 uM ATP, 0.05% Tween-20, 15 nM template, 22 C; recombinant protein; residues 36-360; protein details: N-terminal His6 removed by TEV; label: 5' Alexa488 on DNA; DNA:RNA hybrid.

Turning to “GGGAATGCATGGCGCGGC / UUUUGCCGCGCC [elongation-like DNA:RNA template (18-mer DNA / 12-mer RNA)]”, the binding result was “binds more weakly”.
